{
  "source": "PubChem BioAssay AID540256",
  "about": "(National Center for Advancing Translational Sciences (NCATS), 2011)",
  "note": "Among all 300,000 compounds or so, about 3,700 (1.2%) were called active. Inconclusive means that the source gave no clear call. Such entries were picked first, then a sample of the others. The call rests on the fitted dose curve; tested in HEK293 cells. Where the call is inconclusive, the potency comes from a doubtful curve fit. Potency means the concentration at half of the fitted maximal effect.",
  "data": [
    {"experiment": "qHTS for Inhibitors of binding or entry into cells for Lassa Virus; further: nearly all actives have a fitted effect of over 50% in size", "details": "Lassa virus pseudotype entry inhibition, cell reporter; series mostly up to 37.9 µM", "values": [
      {"smiles": "Cc1nc2c(C(=O)NCc3ccccc3Cl)cnn2c(C)c1Cc1c(F)cccc1Cl", "Potency": "inconclusive: 8.91 µM [inhibitor, partial curve, poor fit]"},
      {"smiles": "Oc1ccc(N=Nc2nc(-c3ccccc3)c(-c3ccccc3)[nH]2)cc1", "Potency": "inconclusive: 1.64 µM [inhibitor, full curve, poor fit]"},
      {"smiles": "COc1ccc(NC(=O)CC2C(=O)N(c3ccc(Cl)cc3)C(=S)N2NC(=O)c2cccc(F)c2)cc1", "note": "(stereo not given)", "Potency": "inconclusive: 18.4 µM [inhibitor, single point]"},
      {"smiles": "CCOC(=O)C1(CCOC)CCN(C(=O)Cc2ccc3ccccc3c2)CC1", "Potency": "inconclusive: 10 µM [inhibitor, partial curve, poor fit]"},
      {"smiles": "CC(=O)n1c2ccccc2c2c1c1ccccc1n2C", "Potency": "inactive"},
      {"smiles": "CC(=O)c1cccc(NC(=O)CCS(=O)(=O)c2cc(Br)cc3c2N(C(=O)C2CC2)CC3)c1", "Potency": "inconclusive: 1 µM [inhibitor, full curve, poor fit]"},
      {"smiles": "CCOC(=O)c1[nH]c2ccc(OCC)cc2c1NC(=O)CN1CCN(c2ccccn2)CC1", "Potency": "inconclusive: 35.5 µM [inhibitor, single point]"},
      {"smiles": "COc1ccc(C2NC(Cc3ccccc3)(C(=O)O)C3C(=O)N(c4ccccc4OC)C(=O)C23)cc1", "note": "(stereo not given)", "Potency": "inactive"},
      {"smiles": "COc1ccc(OC)c(C2CC(=O)c3c([nH]c(C(=O)OCC4CCCCC4)c3C)C2)c1", "note": "(stereo not given)", "Potency": "inconclusive: 35.5 µM [inhibitor, single point]"},
      {"smiles": "O=C(N/N=C/c1ccc(Br)s1)c1cccc([N+](=O)[O-])c1", "Potency": "inactive"},
      {"smiles": "CC1CCc2nc(NC(=O)COc3ccc(C(C)(C)C)cc3)sc2C1", "note": "(stereo not given)", "Potency": "inconclusive: 35.5 µM [inhibitor, single point]"},
      {"smiles": "COc1ccc(CCNC(=O)c2cc(S(=O)(=O)N3CCOCC3)ccc2N2CCCC2)cc1OC", "Potency": "inactive"},
      {"smiles": "O=C(/C=C/c1c(F)cccc1Cl)Nc1ncccn1", "Potency": "inactive"},
      {"smiles": "COCCNC(=O)C(c1ccco1)N(C(=O)Cn1nnc2ccccc21)c1cccc(C)c1C", "note": "(stereo not given)", "Potency": "inconclusive: 35.5 µM [inhibitor, single point]"},
      {"smiles": "CC(C)(C)NC(=O)c1ccc(COc2ccc(Cl)cc2Cl)o1", "Potency": "inconclusive: 7.08 µM [inhibitor, partial curve, poor fit]"},
      {"smiles": "COCC(C)NC(=O)c1cc(-c2ccccc2OC)on1", "note": "(stereo not given)", "Potency": "inconclusive: 6.51 µM [activator, single point]"},
      {"smiles": "CCOc1ccc(NS(=O)(=O)c2ccc(C(=O)N(C)CC(=O)Nc3ccc(C)cc3)cc2)cc1", "Potency": "inconclusive: 14.1 µM [inhibitor, single point]"},
      {"smiles": "COCC(=O)NCCc1nc(-c2ccccc2)cs1", "Potency": "inconclusive: 1.26 µM [inhibitor, single point]"},
      {"smiles": "O=C(NCc1ccc(-c2nc3ccccc3s2)cc1)c1ccc(Br)o1", "Potency": "inconclusive: 20 µM [inhibitor, partial curve, poor fit]"},
      {"smiles": "Cc1ccc(C(=O)Nc2ccccc2Oc2ccccc2)cc1[N+](=O)[O-]", "Potency": "inconclusive: 22.4 µM [inhibitor, single point]"},
      {"smiles": "CN(C(=O)CSc1nc2ccccc2o1)C1CCS(=O)(=O)C1", "note": "(stereo not given)", "Potency": "inactive"},
      {"smiles": "CCc1ccc(CN(C)C(=O)c2cc(COc3cccc(C(F)(F)F)c3)on2)nc1", "Potency": "inconclusive: 11.2 µM [inhibitor, partial curve, poor fit]"},
      {"smiles": "O=C(COC(=O)/C=C/c1cccc(C(F)(F)F)c1)NCCN1C(=O)CSC1=O", "Potency": "inconclusive: 5.62 µM [inhibitor, single point]"},
      {"smiles": "Clc1ccc(-c2csc3ncnc(NCCN4CCOCC4)c23)cc1", "Potency": "inconclusive: 29.1 µM [inhibitor, single point]"},
      {"smiles": "CC[C@H](NC(=O)c1c(C)c(-c2ccccc2)nc2ccccc12)c1ccccc1", "Potency": "inconclusive: 29.1 µM [inhibitor, single point]"},
      {"smiles": "C/C(=N\\NC(=O)CNC(=O)c1cccs1)c1ccc(Cl)c(Cl)c1", "Potency": "inactive"},
      {"smiles": "COc1ccc(CCNC(=O)Cn2nnc(-c3ccc(C(F)(F)F)cc3)n2)cc1OC", "Potency": "inactive"},
      {"smiles": "NC(=O)CS(=O)(=O)c1ccc(Cl)cc1", "Potency": "inactive"},
      {"smiles": "O=C(CN(Cc1ccccc1)S(=O)(=O)c1ccccc1)N/N=C/c1ccc([N+](=O)[O-])cc1", "Potency": "inconclusive: 29.1 µM [inhibitor, single point]"},
      {"smiles": "Cc1ccc(C2CC(=O)C=C(NCc3ccccc3)C2)cc1", "note": "(stereo not given)", "Potency": "inconclusive: 3.98 µM [inhibitor, full curve]"},
      {"smiles": "CCOC(=O)c1ccc(NC(=O)Nc2ccc3c(c2)OCCO3)cc1", "Potency": "inactive"},
      {"smiles": "Cc1ccccc1NC(=O)C(Cl)=C(Cl)Cl", "Potency": "inactive"},
      {"smiles": "CCOC(=O)c1c(NC(=O)c2ccoc2C)sc(C(=O)N(C)C)c1C", "Potency": "inconclusive: 0.231 µM [activator, single point]"},
      {"smiles": "O=C(CSc1nc2nn(-c3ccccc3)c(=O)c-2c2n1CCCCC2)c1ccc(O)c(O)c1", "Potency": "inconclusive: 35.5 µM [inhibitor, single point]"},
      {"smiles": "O=C(Nc1ccccc1)Nc1nnc(-c2cccs2)s1", "Potency": "inconclusive: 0.0891 µM [inhibitor, full curve, poor fit]"},
      {"smiles": "Cc1ccc(CNc2ccc(CNc3ncn[nH]3)cc2)cc1", "Potency": "inactive"},
      {"smiles": "Cc1ccc(/C=C2/Sc3ccccc3N(CC(=O)NCCCOC(C)C)C2=O)cc1", "Potency": "inconclusive: 35.5 µM [inhibitor, single point]"},
      {"smiles": "O=C(CSc1nncn1-c1ccccc1)NC1CCCCC1", "Potency": "inconclusive: 0.103 µM [inhibitor, full curve, poor fit]"},
      {"smiles": "CC(=O)c1ccc(Nc2nc(-c3cccnc3)cs2)cc1", "Potency": "inconclusive: 0.562 µM [inhibitor, full curve, poor fit]"},
      {"smiles": "Cc1ccnc(NC(=O)/C=C/c2cccs2)c1", "Potency": "inconclusive: 10 µM [inhibitor, partial curve, poor fit]"},
      {"smiles": "CC(C)C[C@@H]1COc2cccc(N3CCCCC3)c2S(=O)(=O)N1", "Potency": "inactive"},
      {"smiles": "COc1ccc(COC(=O)CNC(=O)C2CCCCC2)cc1F", "Potency": "inactive"},
      {"smiles": "N/C(Cc1nc(-c2ccc(F)cc2)cs1)=N\\O", "Potency": "inactive"},
      {"smiles": "COCCn1c(CCC(=O)Nc2cc(C)ccc2C)nc2cccnc21", "Potency": "inconclusive: 3.55 µM [activator, single point]"},
      {"smiles": "O=C(CNC(=O)c1ccccc1Br)N/N=C/c1ccccc1O", "Potency": "inconclusive: 20 µM [inhibitor, single point]"},
      {"smiles": "CC(C)c1ccc(C(C(=O)NC2CCCCC2)N(C(=O)c2ccccn2)c2cccnc2)cc1", "note": "(stereo not given)", "Potency": "inconclusive: 31.6 µM [inhibitor, single point]"},
      {"smiles": "O=C(NCCc1c[nH]c2ccccc12)c1c(Cl)nc2sccn12", "Potency": "inactive"},
      {"smiles": "CCOCCCNC(=O)C(c1ccccc1)N(Cc1cccs1)C(=O)c1ccc(NC(C)=O)cc1", "note": "(stereo not given)", "Potency": "inactive"},
      {"smiles": "COc1cccc(N2C(=O)C(CC(=O)Nc3ccc(Cl)cc3)N(Cc3ccc4c(c3)OCO4)C2=O)c1", "note": "(stereo not given)", "Potency": "inconclusive: 17.8 µM [inhibitor, single point]"},
      {"smiles": "Cc1ccc(C(C(=O)NC2CCCC2)N(Cc2ccc(F)cc2)C(=O)c2csnn2)o1", "note": "(stereo not given)", "Potency": "inconclusive: 8.2 µM [inhibitor, single point]"},
      {"smiles": "CC(C)NS(=O)(=O)c1ccc(NC(=O)C(C)OC(=O)CCCOc2ccccc2)cc1", "note": "(stereo not given)", "Potency": "inactive"},
      {"smiles": "CCN(CC)c1ccc(/C=N/Nc2nc(C)cc(C)n2)cc1", "Potency": "inconclusive: 35.5 µM [inhibitor, single point]"},
      {"smiles": "O=C(c1cc(-c2ccc(Cl)cc2)on1)N1CCCC1", "Potency": "inconclusive: 8.91 µM [inhibitor, partial curve, poor fit]"},
      {"smiles": "O=c1c2c(-c3ccccc3)csc2nc2c3ccccc3c(NCCN3CCOCC3)nn12", "Potency": "inconclusive: 35.5 µM [inhibitor, single point]"},
      {"smiles": "CCN(c1ccccc1)S(=O)(=O)c1cc(-c2onc(C)c2C)ccc1OC", "Potency": "inactive"},
      {"smiles": "CC(C)(C)C(=O)/C=c1\\[nH]c(=O)/c(=C\\c2ccc(C#N)cc2)s1", "Potency": "inactive"},
      {"smiles": "CC(=O)Nc1ccc2c(c1)nc1n2CCOC1", "Potency": "inconclusive: 2.31 µM [activator, full curve, poor fit]"},
      {"smiles": "Cc1ccc(C)c(Cn2c(C(C)NC(=O)c3ccc(F)cc3)nc3ccccc32)c1", "note": "(stereo not given)", "Potency": "inactive"},
      {"smiles": "O=C(Nc1ccc(N2CCOCC2)cc1)Nc1cnsn1", "Potency": "inactive"},
      {"smiles": "CCOc1ccc(-c2cccc(NC(=O)c3cccs3)c2)nn1", "Potency": "inactive"},
      {"smiles": "Nc1[nH]c(=S)nc2nc(-c3ccccc3)c(-c3ccccc3)nc12", "Potency": "inconclusive: 35.5 µM [inhibitor, single point]"},
      {"smiles": "O=C(Nc1ccc2c(c1)CCC2)c1cc2ccccc2o1", "Potency": "inconclusive: 2.51 µM [inhibitor, single point]"},
      {"smiles": "Cc1ccc(N=C2NC(=O)/C(=C/C=C/c3ccco3)S2)cc1", "Potency": "inconclusive: 3.98 µM [inhibitor, partial curve]"},
      {"smiles": "COc1ccc2cc(C(=O)N/N=C/c3sc4ccccc4c3O)ccc2c1", "Potency": "inconclusive: 35.5 µM [inhibitor, single point]"},
      {"smiles": "CCOc1ccccc1CNC(=O)C1CCN(S(=O)(=O)c2cccc3nonc23)CC1", "Potency": "inactive"},
      {"smiles": "CCc1ccccc1NC(=O)C(CC)Sc1ncnc2c1sc1ccccc12", "note": "(stereo not given)", "Potency": "inactive"},
      {"smiles": "COc1cc(OC)c(C(=O)O/N=C(\\N)c2cccc(C)c2)cc1OC", "Potency": "inconclusive: 35.5 µM [inhibitor, single point]"},
      {"smiles": "COc1ccc(C(=O)OCC(=O)NCCCc2ccccc2)cc1[N+](=O)[O-]", "Potency": "inactive"},
      {"smiles": "Cc1cccc(C)c1OCC(O)CN1CCC(CN2C(=O)c3cccc4cccc(c34)C2=O)CC1", "note": "(stereo not given)", "Potency": "inconclusive: 22.4 µM [inhibitor, single point]"},
      {"smiles": "CC12CCC(C(=O)N/N=C/c3ccc(O)cc3O)(OC1=O)C2(C)C", "note": "(stereo not given)", "Potency": "inconclusive: 10 µM [inhibitor, partial curve]"}
    ]}
  ]
}
